Laboratory results from PubChem BioAssay AID1671190 (National Center for Advancing Translational Sciences (NCATS), 2021).
Among all 580,000 compounds or so, about 6,100 (1.1%) were called active. Inconclusive results, whose numbers are uncertain, are shown with a selection of clear calls. Calls come from the whole dose curve; as a rule, active = well fitted inhibition curve with a large enough effect; inconclusive = small, poorly fitted or top-dose-only effect, or another doubt; inactive = no such curve, though single readings can be large or run the other way. Where the call is inconclusive, the potency comes from a doubtful curve fit.

Chains of the proteins cited; added tags and fusions are not shown. Lines headed by an entry give the natural chain unless they say otherwise; changes in a name come on top.
UniProt P18054: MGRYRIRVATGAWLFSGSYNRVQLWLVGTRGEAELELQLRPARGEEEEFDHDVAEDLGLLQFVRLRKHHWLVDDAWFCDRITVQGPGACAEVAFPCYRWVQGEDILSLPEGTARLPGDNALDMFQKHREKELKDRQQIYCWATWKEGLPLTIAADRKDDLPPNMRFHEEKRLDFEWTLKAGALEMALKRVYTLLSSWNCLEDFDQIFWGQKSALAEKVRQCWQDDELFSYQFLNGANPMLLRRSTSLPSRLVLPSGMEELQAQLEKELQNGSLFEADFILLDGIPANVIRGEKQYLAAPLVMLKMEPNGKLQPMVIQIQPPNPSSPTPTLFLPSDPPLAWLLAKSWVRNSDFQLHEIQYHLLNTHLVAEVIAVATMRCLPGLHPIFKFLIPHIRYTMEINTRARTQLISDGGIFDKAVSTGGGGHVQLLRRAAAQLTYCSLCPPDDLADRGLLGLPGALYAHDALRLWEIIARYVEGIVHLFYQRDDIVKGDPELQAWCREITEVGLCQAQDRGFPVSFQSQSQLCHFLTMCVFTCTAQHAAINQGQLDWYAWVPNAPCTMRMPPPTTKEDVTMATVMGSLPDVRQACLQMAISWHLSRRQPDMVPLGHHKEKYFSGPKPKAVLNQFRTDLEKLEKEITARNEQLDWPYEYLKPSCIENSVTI

Target: Polyunsaturated fatty acid lipoxygenase ALOX12 (Homo sapiens) (UniProt P18054)
Assay: Primary qHTS assay for inhibitors of human arachidonate 12S-lipoxygenase (ALOX12): Round 2
Settings: purified 12hLO, xylenol orange hydroperoxide absorbance; activity change, negative = inhibition: at 108 µM (top of the series) unless noted
How it was run: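 Hydroperoxide product was detected by ferrous iron/xylenol orange as the 573 to 405 nm absorbance ratio. Arachidonic acid at 40 uM (final) was turned over for 30 min at room temperature by 150 nM human 12hLO, pH 7.0 Hepes buffer, after 15 min compound preincubation.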
% is set by controls: 0 for no effect and ±100 for the full control effect; potency is the fitted concentration of half-maximal effect.

SMILES | Potency | activity change, negative = inhibition
CS(=O)(=O)c1ccc(CN2CCC(C(O)c3ccccn3)CC2)cc1 (configuration not stated) | inconclusive: 17.8 µM [inhibitor, full curve] | 
COc1ccc2cc(S(=O)(=O)c3ccccc3F)c(=O)oc2c1 |  | inconclusive: -30.6% [inhibitor]
CCCc1ncc(C[n+]2ccccc2C)c(N)n1 | inconclusive: 10.2 µM [inhibitor, single point] | 
Cn1nc(C(F)(F)F)c(C(=O)Nc2cccc(C(F)(F)F)c2)c1SCc1ccc(Cl)cc1 | inconclusive: 44.7 µM [inhibitor, partial curve, poor fit] | 
OC(COCC1COc2ccccc2O1)CN1CCc2ccccc2C1 (configuration not stated) | inconclusive: 35.5 µM [inhibitor, single point] | 
Cn1c(=O)c2c(-c3ccccc3)n(CCCN3CCOCC3)cc2n(C)c1=O | inconclusive: 89.1 µM [inhibitor, partial curve, poor fit] | 
Cc1sc(NC(=O)C2CSC3(C)CCC(=O)N23)nc1-c1ccccc1 (configuration not stated) | inconclusive: 56.2 µM [inhibitor, partial curve, poor fit] | 
CN(CC(=O)O)S(=O)(=O)c1ccc2c(c1)n(C)c(=O)c(=O)n2C | inactive | 
Cc1nc(-c2nc3ccccc3s2)cs1 | inconclusive: 14.1 µM [inhibitor, single point] | 
C=CC(=O)NCC1OCCc2ccccc21 (configuration not stated) | inconclusive: 2.51 µM [inhibitor, full curve, poor fit] | 
Cc1ncc(-c2ccc(C)c(S(=O)(=O)N3CCN(c4ccccc4F)CC3)c2)o1 | inactive | 
COc1ccc(-c2oc3c(c2C#CC(C)(C)O)C(OCCO)CC3)cc1 (configuration not stated) | inconclusive: 44.7 µM [inhibitor, partial curve, poor fit] | 
CCOc1ccc(NC(=O)CSc2nnc(CC)c(CC)n2)cc1 | inconclusive: 63.1 µM [inhibitor, partial curve, poor fit] | 
COc1ccc(-c2c(C)oc3cc(OCC(=O)c4ccccc4)ccc3c2=O)cc1 | inconclusive: 6.31 µM [inhibitor, full curve, poor fit] | 
CCOc1ccc(-c2cn3c(n2)sc2cc(C(=O)NCCC4=CCCCC4)ccc23)cc1 | inactive | 
COCCOC1CN(C2CCN(C(=O)c3cccc4[nH]ccc34)CC2)C12CCCCC2 (configuration not stated) | inactive | 
CCN(CC)CCNC(=O)C1CCCN(c2nnc(C)c3c(C)n(-c4ccc(Cl)cc4)nc23)C1 (configuration not stated) | inconclusive: 126 µM [inhibitor, single point] | 
CCOC(=O)c1cc(C(=O)OCC)c2cc(Br)ccc2n1 | inconclusive: 2.51 µM [inhibitor, full curve] | 
O=C(NCC1CCCO1)c1cccc(C(=O)NCC2CCCO2)c1 (configuration not stated) | inactive | 
N#Cc1c(NC(=O)C2CC(c3c(F)cccc3Cl)=NO2)sc2c1CCC2 (configuration not stated) | inconclusive: 39.8 µM [inhibitor, partial curve] | 
CCOC(=O)C(CNc1ccc(O)cc1)NC(=O)c1ccccc1 (configuration not stated) | inconclusive: 35.5 µM [inhibitor, partial curve, poor fit] | 
Cc1noc(C)c1COc1ccccc1C(=O)N1CCN(S(=O)(=O)c2ccccc2Br)CC1 | inactive | 
CCc1cc(-c2cnnn2Cc2ccccc2)ccc1-c1cn(CC(C)C)nn1 | inconclusive: 112 µM [inhibitor, single point] | 

Two compounds drawn at random from those above, as already listed:
SMILES | Potency | activity change, negative = inhibition
N#Cc1c(NC(=O)C2CC(c3c(F)cccc3Cl)=NO2)sc2c1CCC2 (configuration not stated) | inconclusive: 39.8 µM [inhibitor, partial curve] | 
COc1ccc(-c2c(C)oc3cc(OCC(=O)c4ccccc4)ccc3c2=O)cc1 | inconclusive: 6.31 µM [inhibitor, full curve, poor fit] | 

The list continues.

SMILES | Potency | activity change, negative = inhibition
Cc1cccc(C)c1NC(=O)C1CCCN(S(=O)(=O)c2c(C)noc2/C=C/N(C)C)C1 (configuration not stated) | inconclusive: 0.562 µM [inhibitor, single point] | 
O=C(NC(Cc1ccccc1)C(=O)N1CCN(c2ccccc2)CC1)c1ccco1 (configuration not stated) | inactive | 
C=CCNC(=O)c1cnn2c1CN([S+](=O)([O-])c1cccc(C(F)(F)F)c1)CC2 |  | inactive: -1.43% [at 6.33 µM]
CCn1c(SCCOc2ccc(OC)cc2)nnc1C(CO)NC(=O)c1ccc(OC)cc1 (configuration not stated) | inactive | 
O=C(Nc1ccc(N2CCCCCC2)cc1)c1ccccc1SC1CCS(=O)(=O)C1 (configuration not stated) | inconclusive: 1.58 µM [inhibitor, full curve, poor fit] | 
COc1cccc(NC(=O)NCCC2=CCCCC2)c1 | inactive | 
COc1ccccc1CN1CCN(C(c2ccccc2)c2ccccc2)CC1 | inconclusive: 3.16 µM [inhibitor, full curve, poor fit] | 
CCc1ccc2[nH]c(=O)c(C(c3nnnn3Cc3ccc(OC)cc3)N3CCOCC3)cc2c1 (configuration not stated) | inconclusive: 50.1 µM [inhibitor, partial curve, poor fit] | 
COc1ncc2nc(-c3cn(C)c4ccccc34)c(=O)n(-c3ccccc3)c2n1 | inconclusive: 31.6 µM [inhibitor, single point] | 
Cc1nn2c(c1-c1ccccc1Oc1ccccc1)N(C(=O)Cc1cccc(F)c1)CCC2 | inactive | 
CC(=O)/C(C#N)=C1\NC(=O)C(Cc2ccccc2Cl)S1 (configuration not stated) | inconclusive: 35.5 µM [inhibitor, partial curve, poor fit] | 
Cc1nc(NC(=O)Cc2c(C)nn(C)c2C)sc1-c1ccccc1 | inconclusive: 100 µM [inhibitor, single point] | 
COc1ccc(S(=O)(=O)NCC(c2ccco2)S(=O)(=O)c2ccc(C)cc2)cc1C (configuration not stated) | inactive | 
Cc1ccc(S(=O)(=O)[C@H]2CS(=O)(=O)C[C@@H]2NCc2ccccn2)cc1 | inconclusive: 4.47 µM [inhibitor, partial curve, poor fit] | 
Cc1c(C(=O)N2CCc3ccccc32)oc2ccccc12 | inactive | 
CC1(/[N+]([O-])=C/c2ccco2)CCCCC1=O (configuration not stated) | inactive | 
CCN(CC)c1ccc2cc(-c3nc4ccccc4n3C)c(=O)oc2c1 | inconclusive: 56.2 µM [inhibitor, partial curve, poor fit] | 
Brc1ccc(CSc2ccc3nnc(-c4ccccn4)n3n2)cc1 | inconclusive: 100 µM [inhibitor, single point] | 
Cc1onc(-c2ccccc2)c1-c1nnc(CSc2nnnn2C(C)(C)C)o1 | inactive | 
Cc1cc(C(=O)COc2ccc(C#N)cc2)c(C)n1C1CC1 | inactive | 
COc1cc([N+](=O)[O-])cc(/C=C2/SC(=S)N(Cc3ccccc3)C2=O)c1O | active: 15.8 µM | 
O=c1c2ccccc2nc(SCc2nnc(-c3ccccc3Br)o2)n1-c1ccccc1 | inactive | 
CN(C)C(CNc1oc(-c2cccc3ccccc23)nc1C#N)c1cccs1 (configuration not stated) | inconclusive: 112 µM [inhibitor, single point] | 

Exported comma-delimited: entries from further up.
SMILES,Potency,"activity change, negative = inhibition"
Cc1ccc(S(=O)(=O)[C@H]2CS(=O)(=O)C[C@@H]2NCc2ccccn2)cc1,"inconclusive: 4.47 µM [inhibitor, partial curve, poor fit]",
Cc1c(C(=O)N2CCc3ccccc32)oc2ccccc12,inactive,
CC1(/[N+]([O-])=C/c2ccco2)CCCCC1=O (configuration not stated),inactive,

(further entries)

SMILES | Potency | activity change, negative = inhibition
CCc1cc(C(c2ccc3c(c2)OCO3)N2CCN(C)CC2)c(NC(=O)c2ccco2)s1 (configuration not stated) | inconclusive: 0.891 µM [inhibitor, full curve, poor fit] | 
Cc1ccc(Nc2nnc(-c3ccc(C)c(S(=O)(=O)NC(C)(C)CO)c3)c3ccccc23)c(C)c1 | inconclusive: 50.1 µM [inhibitor, partial curve, poor fit] | 
O=C1CCCC2=C1C1(CCCCC1)N=C(Nc1nc3ccccc3s1)N2 | inactive | 
COc1cccc(-n2c(COc3ccc(C)cc3)nnc2SCC(N)=O)c1 | inactive | 
COC(=O)c1ccccc1NC(=O)CSc1nc2sc3c(c2c(=O)[nH]1)CCCC3 | inconclusive: 112 µM [inhibitor, single point] | 
CCc1cc(=O)oc2cc(C)cc(OCc3nn[nH]n3)c12 | inconclusive: 0.0794 µM [inhibitor, full curve, poor fit] | 
Cc1ccc(C)c(OC(=O)c2ccc(CSc3ccc(Cl)cc3)cc2)c1C | inconclusive: 100 µM [inhibitor, single point] | 
O=C1OC(c2ccc(O)cc2)(c2ccc(O)cc2)c2ccccc21 | inconclusive: 44.7 µM [inhibitor, partial curve, poor fit] | 
Cc1ccc(-c2cc(Cc3ccc(F)cc3)c(=O)[nH]n2)cc1 | inconclusive: 70.8 µM [inhibitor, partial curve, poor fit] | 
CC(=O)NC(=O)NC1OC(=O)C(Cl)=C1Cl (configuration not stated) | inconclusive: 7.08 µM [inhibitor, partial curve, poor fit] | 
COc1ccc(CNC(=O)c2c(N)n(CCCN3CCOCC3)c3nc4ccccc4nc23)cc1 | inconclusive: 89.1 µM [inhibitor, single point] | 
COc1cc(OC)c2c(=O)cc(-c3ccccc3)oc2c1 | inconclusive: 100 µM [inhibitor, partial curve, poor fit] | 
CN(C)CCN(C)C1CN(C2CCCC2)S(=O)(=O)C1 (configuration not stated) | inconclusive: 89.1 µM [inhibitor, single point] | 
COc1ccc(-c2cc(C(F)(F)F)nc(S(=O)(=O)CCCC(=O)Nc3ccccc3C(F)(F)F)n2)cc1OC | inconclusive: 89.1 µM [inhibitor, single point] | 
CCN(CCCNC(=O)c1cc2ccccc2c(OC)n1)C(C)=O | inactive | 
Cc1ccc(C(=O)N2CCc3sc(C(=O)NCCN4CCCCCC4)cc3C2)cc1 | inconclusive: 25.1 µM [inhibitor, single point] | 
CC1(C)CC(=O)c2sc(NS(=O)(=O)c3ccc(F)cc3)nc2C1 | inactive | 
COc1ccccc1CNc1nc(-c2ccco2)nn1C(=O)c1ccccc1[N+](=O)[O-] | inconclusive: 112 µM [inhibitor, single point] | 
Cc1nc(CC2CCN(C(=O)CCc3cc4n(n3)CCCNC4)CC2)no1 | inconclusive: 20 µM [inhibitor, full curve] | 
CCOCCCNCc1cccc(C)c1 | inconclusive: 0.282 µM [inhibitor, full curve, poor fit] | 
COC(=O)c1cc(NC(=O)c2c(Cl)cnn2C)cc(C(=O)OC)c1 | inactive | 
